# Data as given in PubChem BioAssay AID504784 (Drosophila RNAi Screening Center, 2011).
# Assay: 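Genome-wide knock-down for genes giving too much or too little stored lipid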 (primary screen)
# Cells: Drosophila Kc167 embryonic cells
# Reagents: long dsRNA against Drosophila genes, about 250 ng dsRNA per well
# Duration: 4 days
# Conditions: cells fed 400 µM oleic acid bound to BSA
# Measurement: 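Cells imaged and segmented; ratio of lipid droplet area to nuclear area, log-transformed, then normalised as a B-score over the screen; higher means more stored lipid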
# Scale: droplet/nuclear area B-score: higher = more stored lipid (overstorage)
# The deposit covers about 17,000 reagents; this is a random part of those with a known target gene and a result. 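Each column is one replicate's B-score; the combined score over replicates was not deposited, so single values may mislead.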 Names joined by + are all predicted targets of the reagent. Further read-outs or replicates are left out here.
gene,amplicon,"droplet/nuclear area B-score, replicate 1"
Trf4-1,DRSC17775,-3.46
Ets96B,DRSC16127,0.31
cry,DRSC16928,-0.00145
AspRS-m,DRSC02646,1.04
CG17029,DRSC10240,0.671
yuri,DRSC01453,0.0775
yuri,DRSC01943,-0.558
yuri,DRSC01972,0.496
peo,DRSC05995,-2.76
CG10750,DRSC02105,0.398
TM9SF3,DRSC09747,2.96
mus301,DRSC10939,0.76
CG5645,DRSC10532,-1.2
CG12645,DRSC17851,-0.476
CG13502,DRSC04147,0.367
Bmcp,DRSC10808,0.65
CG6271,DRSC16006,-1.98
Unc-115a,DRSC12749,-0.0845
RabX2,DRSC18234,0.919
CG3764,DRSC10375,0.363
CG13545,DRSC04187,-0.0352
CG7646,DRSC11232,-0.105
CG7335,DRSC10816,-0.262
CG32305,DRSC08614,-0.422
Alg3,DRSC04700,0.215
Nep2,DRSC12126,-0.104
Nep2,DRSC21398,-0.226
Gss1 + Gss2,DRSC20008,0.594
Gss1 + Gss2,DRSC21539,-1.18
Slimp,DRSC13656,0.981
CG7091,DRSC12944,0.038
CG7091,DRSC16197,-1.68
CG12885,DRSC14572,-0.351
Cec-Psi1,DRSC21956,-0.16
SREBP,DRSC11182,-0.8
RpL13,DRSC03416,4.01
Vmat + CG13330,DRSC06365,-0.413
Ubqn,DRSC19581,1.92
CG8323,DRSC07149,0.0841
Nup44A,DRSC07248,0.267
CG42586 + CG31775,DRSC01413,0.0963
pen-2,DRSC05722,2.73
RhoGAP1A,DRSC20649,-0.757
RhoGAP1A,DRSC20651,0.196
CG17660,DRSC00513,-0.914
CG2812,DRSC04319,-0.417
ea,DRSC16939,-0.0533
NKCC,DRSC12140,-3.58
NKCC,DRSC12311,2.84
CG10184,DRSC14204,-0.503
CG34396,DRSC04245,0.969
CG34396,DRSC04246,-0.1
Non1,DRSC05954,0.00516
stc,DRSC03620,-0.737
CG31288,DRSC14667,-0.365
CG7182,DRSC10780,-0.785
Nf-YB,DRSC02057,-1.19
CG5909,DRSC15914,-0.248
Sps2,DRSC03441,-0.099
CG9386,DRSC16485,5.56
PpN58A,DRSC04642,-0.945
Ankle2,DRSC20105,-1.04
Ankle2,DRSC20106,0.433
CG16984,DRSC08500,0.957
AstA-R2,DRSC14171,0.078
CG33203,DRSC14874,1.79
CG33203,DRSC14876,0.336
CG33203,DRSC14877,-0.364
CG32554,DRSC22713,-0.45
CG10694,DRSC14263,0.74
Idua,DRSC02941,-0.0174
CG12963,DRSC06265,0.274
P5cr,DRSC16782,1.07
Spec2 (retired record),DRSC12258,-0.134
Spec2 (retired record),DRSC22886,2.76
zuc,DRSC02160,-0.333
ncd,DRSC17012,0.132
CG16727,DRSC15139,-0.631
CG32633,DRSC18987,2.39
CG34354,DRSC14515,2.52
CG34354,DRSC14558,-1.78
CG34354,DRSC15645,0.745
CG34354,DRSC23054,0.876
CG31253 + CG31131,DRSC13839,-0.33
mTTF,DRSC01909,2.25
CG13884,DRSC08354,-1.34
Hmgcr,DRSC16704,1.23
l(3)72Dn,DRSC10468,-0.0829
zen,DRSC12632,1.16
CG1537,DRSC19662,-1.04
Sobp,DRSC07312,1.38
fon,DRSC02507,0.367
CG14854,DRSC14978,1.12
SP1029,DRSC16848,-1.75
HisRS,DRSC19986,-0.977
CG32548,DRSC19627,-0.349
CG32548,DRSC19982,-0.145
CG32269 + CG32270,DRSC08195,-0.516
CG5608,DRSC15841,0.191
Rab18,DRSC18702,-0.488
Piezo,DRSC03092,-2.14
Rpt4,DRSC18713,0.527
Cip4,DRSC08469,1.12
Cip4,DRSC21740,0.524
pho,DRSC17219,1.68

Entries listed so far whose gene name starts with M or m (2):
gene,amplicon,"droplet/nuclear area B-score, replicate 1"
mus301,DRSC10939,0.76
mTTF,DRSC01909,2.25
